This note sets out measurements from publication PMC7496091, “Small‐Molecule Inhibitors Targeting Sterol 14α‐Demethylase (CYP51): Synthesis, Molecular Modelling and Evaluation Against Candida albicans” (Chemmedchem, 2020).

The test system of the data set is Δ60HsCYP51. Briefly: CYP51 reconstitution assay (IC50), Δ60HsCYP51. It is filed as biochemical, human. Particulars: CaCYP51 over Δ60HsCYP51. The procedure:
CYP51 reconstitution assays. […] Azoles were introduced using 2.5 μL of stock solutions in DMSO. […] Each IC50 experiment was performed in duplicate.
For the compound `CC[C@@H]([C@H](C)O)n1ncn(-c2ccc(N3CCN(c4ccc(OC[C@@H]5CO[C@@](Cn6cncn6)(c6ccc(F)cc6F)C5)cc4)CC3)cc2)c1=O` [posaconazole, reference compound], the “Selectivity Hs/Ca based on IC50” value worked out at 615 fold.
On to `O=C(NCc1ccc(NS(=O)(=O)c2ccc(Cl)cc2)cc1)C(Cn1cncn1)c1ccccc1` (stereo not shown) [Compound 12 c, N‐(4‐((4‐chlorophenyl)sulfonamido)benzyl)‐2‐phenyl‐3‐(1H‐1,2,4‐triazol‐1‐yl)propanamide], for which the “Selectivity Hs/Ca based on IC50” value is on record as 461 fold.
Next, `O=C(NCc1ccc(Cl)cc1Cl)C(Cn1ccnc1)c1ccc(Cl)cc1` (stereo not shown) [Compound 5 f, 2‐(4‐Chlorophenyl)‐N‐(2,4‐dichlorobenzyl)‐3‐(1H‐imidazol‐1‐yl)propanamide]: 8.1 fold; `O=C(NCc1ccc(Cl)cc1)C(Cn1ccnc1)c1ccc(Cl)cc1` (stereo not shown) [Compound 5 d, N‐(4‐Chlorobenzyl)‐2‐(4‐chlorophenyl)‐3(1H‐imidazol‐1‐yl)propanamide]: 8.6 fold.
